Measured values taken from PubChem BioAssay AID248 (DTP/NCI, 2004).
The list is a part of this screen's results and no random one: its compounds were picked by chemical class. Other doses and runs of a compound may be missing. T/C gives the treated animals as a percentage of the vehicle group. Some entries give survivors of the animals treated and no T/C: the source holds a T/C of zero for them, seemingly a mark for toxic or unscored doses. Some survivor counts are full or nearly so, which does not show that the dose was tolerated: the source hardly ever lists a survival T/C far under the control, and the zero likely stands for such cases as well. Survivors were counted at the toxicity check, usually on the fifth day, unless a day is given; later deaths do not show. Schedules are NCI's codes, read here as Q, the interval in days (D) or hours (H), X, the number of doses. For survival time, the PubChem record calls one and a half times the control and up active, and a quarter to a half above the control has no call in these data; cut-offs in other NCI protocols can differ. Some T/C values are marked as having no survivor count here; that says nothing about deaths at the dose. Some T/C values are followed by the survivors on the day toxicity was checked, most often the fifth; where neither a count nor a note follows, no animal had died by that day.

Test system: L1210 leukemia ip in BDF1 mice, survival T/C
Assay: NCI In Vivo Anticancer Drug Screen. Data for tumor model L1210 Leukemia (intraperitoneal) in B6D2F1 (BDF1) mice
Settings: higher T/C = longer survival
[1] = T/C endpoint: mean survival time, dose: 12.5 mg/kg/injection, schedule: Q04DX003 (ip), vehicle: saline
[2] = T/C endpoint: mean survival time, dose: 25.0 mg/kg/injection, schedule: Q04DX003 (ip), vehicle: saline
[3] = T/C endpoint: mean survival time, dose: 100.0 mg/kg/injection, schedule: Q04DX002 (ip), vehicle: saline
[4] = T/C endpoint: mean survival time, dose: 200.0 mg/kg/injection, schedule: Q04DX002 (ip), vehicle: saline
[5] = T/C endpoint: mean survival time, dose: 400.0 mg/kg/injection, schedule: Q04DX002 (ip), vehicle: saline

N#C/C(=C\c1ccc(N(CCBr)CCBr)cc1)C(N)=O
T/C (T/C endpoint: mean survival time, dose: 1.0 mg/kg/injection, schedule: Q01DX009 (ip), vehicle: Klucel (hydroxypropylcellulose) (HPC)): 112 % of control
T/C (T/C endpoint: mean survival time, dose: 1.0 mg/kg/injection, schedule: Q01DX015 (ip), vehicle: carboxymethylcellulose (CMC)): 117 % of control
T/C (T/C endpoint: mean survival time, dose: 1.7 mg/kg/injection, schedule: Q04DX003 (ip), vehicle: Klucel (hydroxypropylcellulose) (HPC)): 122 % of control
T/C (T/C endpoint: mean survival time, dose: 2.0 mg/kg/injection, schedule: Q01DX009 (ip), vehicle: Klucel (hydroxypropylcellulose) (HPC)): 109 % of control
T/C (T/C endpoint: mean survival time, dose: 2.0 mg/kg/injection, schedule: Q01DX015 (ip), vehicle: carboxymethylcellulose (CMC)): 128 % of control
T/C (T/C endpoint: mean survival time, dose: 2.6 mg/kg/injection, schedule: Q04DX003 (ip), vehicle: Klucel (hydroxypropylcellulose) (HPC)): 125 % of control
T/C (T/C endpoint: mean survival time, dose: 4.0 mg/kg/injection, schedule: Q01DX009 (ip), vehicle: Klucel (hydroxypropylcellulose) (HPC)): 114 % of control [5 of 6 alive]
T/C (T/C endpoint: mean survival time, dose: 4.0 mg/kg/injection, schedule: Q01DX015 (ip), vehicle: carboxymethylcellulose (CMC)): 140 % of control
T/C (T/C endpoint: mean survival time, dose: 4.0 mg/kg/injection, schedule: Q04DX003 (ip), vehicle: Klucel (hydroxypropylcellulose) (HPC)): 120 % of control
T/C (T/C endpoint: mean survival time, dose: 6.0 mg/kg/injection, schedule: Q04DX003 (ip), vehicle: Klucel (hydroxypropylcellulose) (HPC)): 115 % of control
T/C (T/C endpoint: mean survival time, dose: 8.0 mg/kg/injection, schedule: Q01DX009 (ip), vehicle: Klucel (hydroxypropylcellulose) (HPC)): 95 % of control
survivor count (T/C endpoint: mean survival time, dose: 8.0 mg/kg/injection, schedule: Q01DX015 (ip), vehicle: carboxymethylcellulose (CMC)): 3 of 6
T/C (T/C endpoint: mean survival time, dose: 8.0 mg/kg/injection, schedule: Q04DX003 (ip), vehicle: Klucel (hydroxypropylcellulose) (HPC)): 127 % of control
T/C (T/C endpoint: mean survival time, dose: 16.0 mg/kg/injection, schedule: Q04DX003 (ip), vehicle: Klucel (hydroxypropylcellulose) (HPC)): 119 % of control
T/C (T/C endpoint: mean survival time, dose: 32.0 mg/kg/injection, schedule: Q04DX003 (ip), vehicle: Klucel (hydroxypropylcellulose) (HPC)): 90 % of control
survivor count (T/C endpoint: mean survival time, dose: 64.0 mg/kg/injection, schedule: Q04DX003 (ip), vehicle: Klucel (hydroxypropylcellulose) (HPC)): 4 of 6
survivor count (T/C endpoint: mean survival time, dose: 128.0 mg/kg/injection, schedule: Q04DX003 (ip), vehicle: Klucel (hydroxypropylcellulose) (HPC)): 1 of 6

O=C(OC1CN2CCC1CC2)c1ccc(O)cc1 (centres undefined)
T/C (T/C endpoint: mean survival time, dose: 6.25 mg/kg/injection, schedule: Q04DX003 (ip), vehicle: saline): 102 % of control
T/C [1]: 100 % of control
T/C [2]: 108 % of control

Cc1ccc(C(=O)OCCNCCCl)cc1
T/C (T/C endpoint: median survival time, dose: 100.0 mg/kg/injection, schedule: Q01DX009 (ip), vehicle: Klucel (hydroxypropylcellulose) (HPC)): 105 % of control [5 of 6 alive]
T/C (T/C endpoint: median survival time, dose: 200.0 mg/kg/injection, schedule: Q01DX009 (ip), vehicle: Klucel (hydroxypropylcellulose) (HPC)): 100 % of control
survivor count (T/C endpoint: median survival time, dose: 400.0 mg/kg/injection, schedule: Q01DX009 (ip), vehicle: Klucel (hydroxypropylcellulose) (HPC)): 3 of 6

O=C(Nc1ccc(Br)cc1)NP(=O)(Nc1ccccc1)Nc1ccccc1
T/C (T/C endpoint: mean survival time, dose: 50.0 mg/kg/injection, schedule: Q01DX001 (ip), vehicle: other): 101 % of control
T/C (T/C endpoint: mean survival time, dose: 100.0 mg/kg/injection, schedule: Q01DX001 (ip), vehicle: other): 87 % of control
T/C (T/C endpoint: mean survival time, dose: 200.0 mg/kg/injection, schedule: Q01DX001 (ip), vehicle: other): 87 % of control
T/C (T/C endpoint: mean survival time, dose: 400.0 mg/kg/injection, schedule: Q01DX001 (ip), vehicle: other): 87 % of control

Cc1n[nH]c(N=[N+]=[N-])n1
T/C [3]: 101 % of control [survivor count not shown]
T/C [4]: 98 % of control [survivor count not shown]
T/C [5]: 96 % of control [survivor count not shown]

CC(=O)CC(=O)OC1CN2CCC1CC2 (centres undefined)
T/C [3]: 96 % of control
T/C [4]: 96 % of control
T/C [5]: 93 % of control [2 of 3 alive]

O=[N+]([O-])c1cc([N+](=O)[O-])c(/C=C/c2cccc([N+](=O)[O-])c2[N+](=O)[O-])cc1/C=C/c1cccc([N+](=O)[O-])c1[N+](=O)[O-]
T/C (T/C endpoint: mean survival time, dose: 75.0 mg/kg/injection, schedule: Q01DX001 (ip), vehicle: carboxymethylcellulose (CMC)): 93 % of control [survivor count not shown]
T/C (T/C endpoint: mean survival time, dose: 150.0 mg/kg/injection, schedule: Q01DX001 (ip), vehicle: carboxymethylcellulose (CMC)): 90 % of control [survivor count not shown]

COP(N)(=O)N(CCCl)CCCl (centres undefined)
T/C (T/C endpoint: mean survival time, dose: 600.0 mg/kg/injection, schedule: Q01DX001 (ip), vehicle: saline): 116 % of control
T/C (T/C endpoint: mean survival time, dose: 700.0 mg/kg/injection, schedule: Q01DX001 (ip), vehicle: saline): 118 % of control
T/C (T/C endpoint: mean survival time, dose: 800.0 mg/kg/injection, schedule: Q01DX001 (ip), vehicle: saline): 121 % of control
T/C (T/C endpoint: mean survival time, dose: 1000.0 mg/kg/injection, schedule: Q01DX001 (ip), vehicle: saline): 104 % of control

CN(C)P(=O)(N(C)C)n1c(Nc2ccccc2)nnc1-c1ccccc1
T/C (T/C endpoint: mean survival time, dose: 0.75 mg/kg/injection, schedule: Q01DX009 (ip), vehicle: saline): 105 % of control
T/C (T/C endpoint: mean survival time, dose: 1.5 mg/kg/injection, schedule: Q01DX009 (ip), vehicle: saline): 98 % of control
T/C (T/C endpoint: mean survival time, dose: 1.5 mg/kg/injection, schedule: Q04DX003 (ip), vehicle: saline): 110 % of control
T/C (T/C endpoint: mean survival time, dose: 3.0 mg/kg/injection, schedule: Q01DX009 (ip), vehicle: saline): 107 % of control
T/C (T/C endpoint: mean survival time, dose: 3.0 mg/kg/injection, schedule: Q04DX003 (ip), vehicle: saline): 110 % of control
survivor count (T/C endpoint: mean survival time, dose: 6.0 mg/kg/injection, schedule: Q04DX003 (ip), vehicle: saline): 6 of 6
survivor count [1]: 0 of 6
survivor count [2]: 0 of 6
survivor count (T/C endpoint: mean survival time, dose: 50.0 mg/kg/injection, schedule: Q04DX003 (ip), vehicle: saline): 0 of 6
survivor count (T/C endpoint: mean survival time, dose: 100.0 mg/kg/injection, schedule: Q04DX003 (ip), vehicle: saline): 0 of 6
survivor count (T/C endpoint: mean survival time, dose: 200.0 mg/kg/injection, schedule: Q04DX003 (ip), vehicle: saline): 0 of 6
survivor count (T/C endpoint: mean survival time, dose: 400.0 mg/kg/injection, schedule: Q04DX003 (ip), vehicle: saline): 0 of 6

O=C(O)C(O)(c1ccccc1)c1ccccc1
T/C (T/C endpoint: mean survival time, dose: 100.0 mg/kg/injection, schedule: Q01DX001 (ip), vehicle: saline with Tween-80): 105 % of control [survivor count not shown]
T/C (T/C endpoint: mean survival time, dose: 200.0 mg/kg/injection, schedule: Q01DX001 (ip), vehicle: saline with Tween-80): 93 % of control [survivor count not shown]
T/C (T/C endpoint: mean survival time, dose: 400.0 mg/kg/injection, schedule: Q01DX001 (ip), vehicle: saline with Tween-80): 96 % of control [survivor count not shown]
